Results published in PMC6965139, “Crystal structures of fukutin-related protein (FKRP), a ribitol-phosphate transferase related to muscular dystrophy” (Nature Communications, 2020).
Results are given in words; binding and its absence hold for the method and conditions named. Some binding calls cover weakened binding; strength is not graded here. For some assays here: Sequences can lack the tags named with a protein.

T1: soluble form of fukutin-related protein (sFKRP, residues 45 to C-terminus) (human) (UniProt Q9H9S5)
T1 sequence: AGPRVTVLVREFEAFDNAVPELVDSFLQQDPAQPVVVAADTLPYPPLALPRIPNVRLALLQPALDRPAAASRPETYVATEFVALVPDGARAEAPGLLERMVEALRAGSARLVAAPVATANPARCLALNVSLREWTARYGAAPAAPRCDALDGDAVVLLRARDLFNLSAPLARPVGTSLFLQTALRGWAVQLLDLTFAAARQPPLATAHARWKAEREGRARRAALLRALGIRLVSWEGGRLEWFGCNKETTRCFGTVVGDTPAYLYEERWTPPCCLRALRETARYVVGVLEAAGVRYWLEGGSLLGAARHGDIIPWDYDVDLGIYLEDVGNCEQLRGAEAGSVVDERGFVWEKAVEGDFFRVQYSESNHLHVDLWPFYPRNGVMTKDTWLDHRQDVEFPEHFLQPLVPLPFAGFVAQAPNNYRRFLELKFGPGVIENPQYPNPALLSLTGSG

B1: secreted type of FKRP, wild type (sFKRP, Asn33 to the C-terminus, His/Myc) (enzyme, UniProt Q9H9S5 33-495)
chain: NSRARGPRRASAAGPRVTVLVREFEAFDNAVPELVDSFLQQDPAQPVVVAADTLPYPPLALPRIPNVRLALLQPALDRPAAASRPETYVATEFVALVPDGARAEAPGLLERMVEALRAGSARLVAAPVATANPARCLALNVSLREWTARYGAAPAAPRCDALDGDAVVLLRARDLFNLSAPLARPVGTSLFLQTALRGWAVQLLDLTFAAARQPPLATAHARWKAEREGRARRAALLRALGIRLVSWEGGRLEWFGCNKETTRCFGTVVGDTPAYLYEERWTPPCCLRALRETARYVVGVLEAAGVRYWLEGGSLLGAARHGDIIPWDYDVDLGIYLEDVGNCEQLRGAEAGSVVDERGFVWEKAVEGDFFRVQYSESNHLHVDLWPFYPRNGVMTKDTWLDHRQDVEFPEHFLQPLVPLPFAGFVAQAPNNYRRFLELKFGPGVIENPQYPNPALLSLTGSG
B2: RboP-(phospho-)core M3 peptide [AT(RboP-3GalNAcβ1-3GlcNAcβ1-4(phospho-6)Manα1-)…] (peptide)
peptide: ATPAPVAAIGPK
modifications: Thr2 O-linked RboP-3GalNAcβ1-3GlcNAcβ1-4(phospho-6)Manα1-

Experiments:
[1] = target: secreted type of FKRP, wild type (sFKRP, Asn33 to the C-terminus, His/Myc) (human) (UniProt Q9H9S5); assay: SEC; culture medium of transfected HEK293T applied to Superdex 200 increase 5/150; fractions analysed by Western blotting with c-Myc antibody
[2] = target: T1, soluble form of fukutin-related protein (sFKRP, residues 45 to C-terminus) (human); assay: crystal structure; crystals of the Ba2+-bound form of sFKRP soaked with 10 mM acceptor peptide (and CDP-Rbo), 2 h at 293 K; 2.47 Å; both purified

binding [1]	binding [2]	Binder
binds	–	B1
–	binds weakly	B2
